Measured values as given in patent US20190169249A1 (SHATTUCK LABS, published 2019).
No constants are given. Whether binding was seen depends on the method and setting. Some results given as binding are weak or reduced against the parent protein; the word gives no strength.

What was measured:
[1] = molecular target: murine CD40 overexpressed on CHO-K1 cells (CHOK1/CD40) (murine) (UniProt P27512); test: flow cytometry on CHOK1/CD40 cells
[2] = molecular target: T1, recombinant murine CSF1 protein (murine) (UniProt P07141); test: ELISA, plate-bound recombinant murine CSF1 (FIG. 7B)
T1 sequence (looked up): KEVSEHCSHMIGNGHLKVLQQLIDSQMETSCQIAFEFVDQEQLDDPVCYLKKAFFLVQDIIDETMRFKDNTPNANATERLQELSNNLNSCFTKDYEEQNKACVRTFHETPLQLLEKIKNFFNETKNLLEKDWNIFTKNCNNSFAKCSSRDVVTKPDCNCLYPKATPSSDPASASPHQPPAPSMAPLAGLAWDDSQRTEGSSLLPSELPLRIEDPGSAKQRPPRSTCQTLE

[3] = molecular target: murine CD40 overexpressed on CHO-K1 cells (CHOK1/CD40) (murine) (UniProt P27512); test: flow cytometry on CHOK1/mCD40 cells against CHOK1 parental cells, hFc-PE detection
[4] = molecular target: T1, recombinant murine CSF1 protein (murine); test: ELISA, left panel BINDING TO CSF1: plate-bound CSF1, anti-Fc-HRP detection; x axis is dilution
[5] = molecular target: T2, recombinant mouse CD40 protein (mouse) (UniProt P27512); test: ELISA, plate-bound recombinant mouse CD40 (FIG. 7B)
T2 sequence (looked up): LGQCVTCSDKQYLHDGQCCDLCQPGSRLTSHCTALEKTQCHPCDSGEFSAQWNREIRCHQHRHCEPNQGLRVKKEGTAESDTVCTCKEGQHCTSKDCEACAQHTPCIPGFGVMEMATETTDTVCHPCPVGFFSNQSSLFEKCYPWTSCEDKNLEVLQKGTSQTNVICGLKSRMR

[6] = molecular target: T2, recombinant mouse CD40 protein (mouse); test: ELISA, right panel BINDING TO CD40: plate-bound CD40, anti-CD40L antibody and HRP antibody detection; x axis is dilution

Measured: binding

B1: murine CSF1R-Fc-CD40L chimeric protein (Fc fusion)
chain (part 1 of 2): APVIEPSGPELVVEPGETVTLRCVSNGSVEWDGPISPYWTLDPESPGSTLTTRNATFKNTGTYRCTELEDPMAGSTTIHLYVKDPAHSWNLLAQEVTVVEGQEAVLPCLITDPALKDSVSLMREGGRQVLRKTVYFFSPWRGFIIRKAKVLDSNTYVCKTMVNGRESTSTGIWLKVNRVHPEPPQIKLEPSKLVRIRGEAAQIVCSATNAEVGFNVILKRGDTKLEIPLNSDFQDNYYKKVRALSLNAVDFQDAGIYSCVASNDVGTRTATMNFQVVESAYLNLTSEQSLLQEVSVGDSLILTVHADAYPSIQHYNWTYLGPFFEDQRKLEFITQRAIYRYTFKLFLNRVKASEAGQYFLMAQNKAGWNNLTFELTLRYPPEVSVTWMPVNGSDVLFCDVSGYPQPSVTWMECRGHTDRCDEAQALQVWNDTHPEVLSQKPFDKVIIQSQLPIGTLKHNMTYFCKTHNSVGNSSQYFRAVSLGQSKQLPDESLFTP
chain (part 2 of 2): HRRLDKVEEEVNLHEDFVFIKKLKRCNKGEGSLSLLNCEEMRRQFEDLVKDITLNKEEKKENSFEMQRGDEDPQIAAHVVSEANSNAASVLQWAKKGYYTMKSNLVMLENGKQLTVKREGLYYVYTQVTFCSNREPSSQRPFIVGLWLKPSSGSERILLKAANTHSSSQLCEQQSVHLGGVFELQAGASVFVNVTEASQVIHRVGFSSFGLLKL
notes: 'constructed as described above in the Detailed Description and in U.S. 62/464,002'; also called mCSF1R-Fc-CD40L; mCD115-Fc-CD40L; not shown: Fc linker
binds: all assays above
